Variants at the background level are over-represented here.

The chains are these.
B1: tRNA (parent)
chain: GUUCCGUUGGCGUAAUGGUAACGCGUCUCCCUCCUAAGGAGAAGACUGCGGGUUCGAGUCCCGUACGGAACG

Variants of B1 are the subject of this series. Kind of series: yeast fitness relative to wild type (ratio to wild type); higher = fitter; tRNA-Arg(CCU), competitive growth, 37 C, YPD. In short, it runs like this: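 The tRNA-Arg(CCU) gene variants were made by chemical synthesis with a 3% per-site mutation rate at 69 sites and inserted at the native genomic locus of Saccharomyces cerevisiae. After pooling, the strains were competed in YPD at 37°C for 24 hours in six parallel replicates. Gene amplicons from the start population and each end population were read by 100-nucleotide paired-end sequencing, and Darwinian fitness relative to wild type was taken from genotype frequency changes. Genotypes needed ≥ 100 starting reads, and estimates < 0.5 were set to 0.5.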
Take G9C C24G C30U: the yeast fitness is not above 0.5.
The same measure for U3A G9A C30A A42U C49U U59C A69C: not above 0.5; for G12C A20U C22A: 0.927; for U8A C11G G50A: not above 0.5.
The same measure for C11U U26G C46U C60A: not above 0.5; for C5A U8G U28G A57C: not above 0.5.
The value for C5U C30U A37C A65G A70C was not above 0.5; that for A14U C24U C29A G52C C55A was not above 0.5; that for G6C C33G C34U was not above 0.5.
For U3A C11U U13C C31A U59A, the yeast fitness is not above 0.5.
The same measure for C22U G25C U28C A36G G51A G67A: not above 0.5; for G10A C27G C33G G41C C61A: not above 0.5; for G44A G48A G50C: not above 0.5.
The value for C27G U59G G68C was 0.582; that for A15U A21C G51C G52A was not above 0.5.
On to C11G C46A G56C, for which the yeast fitness is not above 0.5.
The value for A42C G56A was 1.01; that for U59G A65G was 0.965; that for U2A C29A U32C A36G A45U was not above 0.5.
The same measure for C31G C49G A70C: not above 0.5.
For the variant G6C U16G C31U, the yeast fitness was not above 0.5.
The value for G38A A45C U64C was not above 0.5.
The same measure for G23C C29G A43U G50A A70G: not above 0.5; for G10A C27U A40C U47A G48C C66U: not above 0.5; for U28A G63A G68A: not above 0.5.
Consider G56A U59C A65C, for which the yeast fitness was 0.738.
The value for U8A C31A C33G was 0.542; that for C4A U19A A40U G48C was not above 0.5.
The value for A20G U32A A42C G67C was not above 0.5; that for C11U C22U C49U C66U was not above 0.5; that for A14G U28C G67U A69C was not above 0.5.
Turning to C4G C5U G41C A57U, the yeast fitness is not above 0.5.
The value for C4A C5G G52C was not above 0.5; that for U2C C11U A14C C34G A40C A42C was not above 0.5; that for C11A A15C C24A C31G G58C G67C was not above 0.5.
The same measure for C31A C33U G48C A57U: not above 0.5; for U8C C22U C31U C60A: not above 0.5.
The value for U7G C22U G51C G58A was not above 0.5; that for C4G C11G C49A was not above 0.5; that for C31G C34G A40U was not above 0.5.
For the variant C27U U35A A36C C66A, the yeast fitness was not above 0.5.
The same measure for U19A A42U A45G U64A: not above 0.5.
The same measure for G10C C27U A40U A45U: not above 0.5; for A14C A20G A36G C55U G68C: not above 0.5; for C11G C24U C30G C31A A43G: not above 0.5.
The value for C33A A43G A45C U54C C60A was not above 0.5; that for C5A C11A U26A C30G A43C C49U was not above 0.5; that for G25A G48A C61A was not above 0.5.
On to U8C G23C C29G A45U C66U A69C, for which the yeast fitness is not above 0.5.
The same measure for U3G U8A C31A: not above 0.5; for U13C A37G G68C: not above 0.5.
As to C5G C22U U28G G52C G68C, the yeast fitness is not above 0.5.
As to C4U C60G G63A G67A, the yeast fitness is not above 0.5.
The same measure for A21G C29U G38A G63A: not above 0.5.
For C30U C49G A57G G67U, the yeast fitness was not above 0.5.
The value for C5A A14G C22G A37U U54G was not above 0.5; that for G25C C31A C46G U64G was not above 0.5; that for U16C C29U C49U C55G was not above 0.5.
The value for A14G A15C C55U was not above 0.5; that for C5U A14C C31A G52C was not above 0.5.
With A20C C30U A37G, the yeast fitness is not above 0.5.
Consider U2A C24G A43U C46U G67C, for which the yeast fitness was not above 0.5.
The value for U26G C49G was 0.851; that for C4A C24G C29G A43C U53A was not above 0.5.
Turning to C11A C60G C62G, the yeast fitness is not above 0.5.
The value for C4U G6C C11U A14U C24G G58C was not above 0.5; that for C4U C27A A65C A69C was not above 0.5; that for A20G C24G G67C was not above 0.5.
The same measure for U16A A21U C27U A40U A65U: not above 0.5; for A15U C27U C66A: not above 0.5; for A14C A15U C62G: not above 0.5.
The same measure for C5U C22U U35A A37U G67A: not above 0.5; for U8G C27A U35C C61A G67A: not above 0.5.
Consider U35C G63C A65C, for which the yeast fitness was not above 0.5.
Turning to U3A C11G A14C C62U G67C, the yeast fitness is not above 0.5.
The value for C24A C27G C61A C66G was not above 0.5; that for C29U A43G C49A was 0.615; that for U3G C5U G12A was not above 0.5.
The same measure for C4G A40U A45U U54C G63C A70U: not above 0.5; for A15G C31U U64A: not above 0.5; for U7C G48C C66G: not above 0.5.
The same measure for C4A C5A C11G A15U U19C A21U: not above 0.5; for A36C G39C G63A A65U: not above 0.5; for G6A U19C C29U G48C: not above 0.5.
On to C34G A43U G52A, for which the yeast fitness was not above 0.5.
The value for C22U C34A A42U G44C C61A was not above 0.5; that for G41C C49U G68C was not above 0.5.
The value for G17C A37U was not above 0.5; that for C11A A43G C60A A65C was not above 0.5.
On to G10C C22A C24G U53A G63A, for which the yeast fitness was not above 0.5.
The value for C4U C11A U28A C31U U32C G51C was not above 0.5; that for C5U C30U U32G A36G A37U U47A was not above 0.5.
The same measure for U19A C31A A37G: not above 0.5; for C22G C27G C60U C61A C62G: not above 0.5; for G9C C30U A37C C46U: not above 0.5.
As for C11U U26A C66U, the yeast fitness is not above 0.5.
The value for U3C C4U A21G C46A was 0.628; that for C5G C29U G38C C61G was not above 0.5; that for C5G G9C C55A C61G was not above 0.5.
Regarding C30U G50C G52C U54A C60U, the yeast fitness was not above 0.5.
The value for G18C U54A A57C was not above 0.5.
The value for C11U C34U G38A G44C was 0.541; that for A20U C24G C34G G58A was not above 0.5.
On to G9A U32G A40C G41A, for which the yeast fitness was not above 0.5.
The same measure for C5A C27G U47C: not above 0.5; for G23C C31A G52A C62A: not above 0.5.
The same measure for A21G U35G U59A: not above 0.5; for C5A G39A U47A C55U G67A A69G: not above 0.5; for A15C A43C C46G A57U: not above 0.5.
The same measure for A15G U54A C55U C66A: not above 0.5; for G9A C11A A20U C29G G58C: not above 0.5.
As to U32C A37U G52A, the yeast fitness is not above 0.5.
In the case of A36C G38A G58A, the yeast fitness was determined as 0.562.
The same measure for U7A C22A C30U: not above 0.5; for C34A C55G U64C A65C: not above 0.5.
The value for U28C U32C C46G was 0.722; that for C29G A43G A57G U64C was not above 0.5.
Take C5A A40C A57U C62G: the yeast fitness is not above 0.5.
With U2A G12A A21C, the yeast fitness came to 0.515.
The same measure for G10A A36G C60G: not above 0.5; for C11A A36G U54G: not above 0.5.
The same measure for C27A C29G C49G G51C U54C: not above 0.5.
Turning to U3G U7A G9A A69U, the yeast fitness was not above 0.5.
The value for G18A C27U C31A C46A G52A G63C was not above 0.5; that for G17A A20C C24U A43C G52A was not above 0.5; that for G6C A36C A65C G67A was not above 0.5.
The same measure for C30U A42U U64A C66G A69U: not above 0.5.
For C4U C11A G12A G48A A57C A70C, the yeast fitness is not above 0.5.
The value for C11U A42C was 0.91; that for C11G C33U G38C U64C was not above 0.5.
For the variant U2A C24G, the yeast fitness was found to be 0.643.
The same measure for A57U A65C C66G: not above 0.5.
The same measure for U28A G38A U59C G67A: not above 0.5.
For the variant U26A A42C A45G C49U C66U, the yeast fitness is not above 0.5.
The same measure for A15G C29G C30G G44A: not above 0.5; for C46G G50C C61A: not above 0.5; for A14C U16C A21G C29A C34U A69U: not above 0.5.
The same measure for G17C G56C: 0.633; for U13A C34U A40U G63A A65C: not above 0.5; for U26C U28A C29G C33A A42U A70U: not above 0.5.
The value for U2C C4U G10C A57C U59C A70C was not above 0.5; that for C5U G17A C34U C55G was not above 0.5; that for U26A G56A was 1.02.
On to C5A A20C C22A A36C A69C, for which the yeast fitness was not above 0.5.
Turning to C5A U7C C31A, the yeast fitness was not above 0.5.
Turning to C24A A36U U59C C66U A70C, the yeast fitness was not above 0.5.
The same measure for G18A A20G: 0.613; for U8A G12C U47A C55A: not above 0.5; for U13G A36C G39A: not above 0.5.
The value for G9A C31U C49U A69C was not above 0.5; that for C5G G25A A65G was 0.763.
As to A14U C24G C31A A40G G44C A69U, the yeast fitness was not above 0.5.
The value for U3A A14G G23C G41A C55U U59A A70U was not above 0.5; that for C5G U19C C24U was 0.684; that for U3A C5A G12C G25A C30U G50A C55G C62A was not above 0.5.
The same measure for C29G A36C G41A G50A U53C A65U A70U: not above 0.5.
The same measure for G17A A37U C60A: not above 0.5.
Regarding C11U G38C C46G A65U, the yeast fitness was not above 0.5.
The same measure for C31A C66G: 0.615.
For the variant C4U U28C C29U G63C A65U, the yeast fitness is not above 0.5.
Regarding C4U C29U C31U, the yeast fitness amounted to 0.538.
As for A21U G23A A45C, the yeast fitness is not above 0.5.
Turning to A14G A42G G48C, the yeast fitness came out at 0.568.
The same measure for G9C C11U C22G: not above 0.5; for C4G C31U C55G G67C: not above 0.5.
Consider A37C A40G G44C G52C U59C C66U, for which the yeast fitness was not above 0.5.
For the variant G25A U32A U53A, the yeast fitness is not above 0.5.
